Laboratory results: PubChem BioAssay AID2685 (National Center for Advancing Translational Sciences (NCATS), 2010)
The other results are listed elsewhere or left out. Shown are side measurements of this screen, not its main read-out; they come without a call. Compounds called inactive in the main read-out are mostly missing here. The note in brackets gives the kind of curve behind each potency; many fits are weak.

Assay: qHTS Assay for Lipid Storage Modulators in Drosophila S3 Cells;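 on cell number change: cells counted by Cell Tracker Red CMTPX staining in the red channel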
Details: BODIPY lipid droplet fluorescence, 18-24 h; for cell number change: measured here: cell count max response, cells fed with added oleic acid
In short: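 Laser-scanning cytometry quantifies lipid droplet accumulation (500–530 nm total intensity; droplet/cell object ratio) in oleic acid-fed (400 uM added) Drosophila S3 cells treated with a concentration series. 20 uM Triacsin C defined 100% inhibition.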

[1] = measured here: cell number channel AC50, cells fed with added oleic acid
[2] = measured here: lipid fluorescence (Fed channel) AC50, cells fed with added oleic acid

| SMILES | cell number change | AC50 [1] | AC50 [2] |
| --- | --- | --- | --- |
| COc1cc2c(cc1NC(=O)c1cccc(F)c1)CCCC2 | -52.2% | 29.1 µM [falling, single point] | 25.9 µM [rising, partial curve, poor fit] |
| COc1cc(NS(=O)(=O)c2ccc(NC(=O)c3ccc(S(=O)(=O)N4CCCCC4)cc3)cc2)ncn1 | 22% | – | 4.11 µM [rising, single point] |
| CCCC(=O)N1CCN(c2ccc(NC(=O)C(C)(C)C)cc2Cl)CC1 | -71.9% | 23.1 µM [falling, partial curve, poor fit] | 1.64 µM [falling, partial curve] |
| Oc1ccc(N2CCN(c3ccnc4cc(Cl)ccc34)CC2)cc1 | 17.7% | – | 6.51 µM [rising, single point] |
| CN(C)CCCNc1ncnc2oc(-c3ccccc3)c(-c3ccccc3)c12 | 2.95% | – | 2.59 µM [falling, full curve] |
| COc1cccc(C(=O)Nc2ccc(C(F)(F)F)n(C)c2=O)c1 | – | – | 6.51 µM [rising, single point] |
| CCCN1C2CCCC1CC(NC(=O)c1ccc(Br)cc1)C2 (stereo not given) | -0.549% | – | 5.17 µM [falling, partial curve] |
| Brc1csc(/C=N/Nc2nc3ccccc3s2)c1 | -59.9% | 14.6 µM [falling, partial curve] | 14.6 µM [falling, single point] |
| COc1ccc(NC(=O)c2cnc(SC)n2-c2ccc(F)cc2)c(OC)c1 | -6.67% | – | 0.13 µM [rising, single point] |
| CCCCn1c(SCC(=O)Nc2nnc(CC)s2)nc2c1c(=O)n(C)c(=O)n2C | 20.7% | – | 4.61 µM [rising, full curve, poor fit] |
| Cc1ccc(S(=O)(=O)c2nc(-c3ccccc3)oc2N2CCC(C(N)=O)CC2)cc1 | 37.9% | 1.3 µM [rising, full curve, poor fit] | – |
| O=C(CCN1CCc2ccccc2CC1)c1ccc2c(c1)OCCO2 | -30.6% | 9.2 µM [falling, partial curve, poor fit] | 18.4 µM [falling, single point] |
| COc1ccc(-c2cnc(N)nc2-c2ccc(OC)cc2O)cc1 | -9.28% | 0.58 µM [rising, full curve] | – |
| CC(C)OCCCN1C(=O)c2[nH]nc(-c3ccccc3O)c2C1c1cccc(Cl)c1 (stereo not given) | -80.3% | 29.1 µM [falling, single point] | 29.1 µM [falling, partial curve] |
| O=C(O)c1cccc(NC(=O)c2cn(-c3ccccc3)nc2-c2cccc(Br)c2)c1 | 21.8% | – | – |
| COc1cccc(CNC(=O)C(=O)NCC2OCCCN2S(=O)(=O)c2cc(C)ccc2C)c1 (stereo not given) | 8.09% | – | 2.91 µM [rising, full curve] |
| Cc1ccccc1NC(=O)Cc1nnc(SCC(=O)NC2=NCCS2)n1C | -5.56% | – | 29.1 µM [falling, single point] |
| Nc1nc(N2CCOCC2)n[nH]1 | 24.8% | – | – |
| Cc1nnc2ccc(Oc3ccc(-c4ccccc4)cc3)nn12 | -44.6% | 16.4 µM [falling, single point] | 29.1 µM [falling, single point] |
| CC(C)c1nnc(NC(=O)CSc2nc3ccccc3s2)s1 | -75.7% | 29.1 µM [falling, single point] | 29.1 µM [falling, single point] |

| SMILES | cell number change | AC50 [1] | AC50 [2] |
| --- | --- | --- | --- |
| COc1cc(C2c3c(oc4ccccc4c3=O)C(=O)N2c2nccs2)ccc1O (stereo not given) | 0.27% | – | – |
| Cn1cnc([N+](=O)[O-])c1S(=O)(=O)c1cccc(Cl)c1 | -84.8% | 23.1 µM [falling, partial curve] | 14.6 µM [falling, partial curve] |
| O=c1c2cnn(-c3ccccc3)c2nc(-c2ccco2)n1-c1ccccc1 | 33.7% | 29.1 µM [rising, single point] | 16.4 µM [rising, single point] |
| COc1ccc(N)cc1-n1cnnn1 | -23.8% | 1.64 µM [falling, partial curve, poor fit] | 1.84 µM [falling, partial curve, poor fit] |
| COc1ccc(CC(=O)NC(c2ccccc2)c2ccc(C)cc2)c(OC)c1 (stereo not given) | -6.94% | – | 6.51 µM [rising, partial curve] |
| COc1cccc(CNC(=O)c2ccncc2)c1 | 13.5% | – | 0.00517 µM [falling, full curve, poor fit] |
| CC1=NN(C(=O)c2ccc(Cn3nc(C)c([N+](=O)[O-])c3C)o2)C(O)(C(F)(F)F)C1 (stereo not given) | 40.6% | 8.2 µM [rising, partial curve] | 13 µM [rising, partial curve, poor fit] |
| COc1cccc(-c2cc(C(=O)N3CCOCC3)no2)c1 | 17.1% | 0.291 µM [rising, full curve, poor fit] | 29.1 µM [rising, partial curve, poor fit] |
| CCc1cn([C@H]2C[C@H](O)[C@@H](CO)O2)c(=O)[nH]c1=O | – | – | 29.1 µM [rising, single point] |
| O=C(NC(NC(=S)Nc1cccc(C(=O)O)c1)C(Cl)(Cl)Cl)OCc1ccccc1 (stereo not given) | 1.57% | – | 11.6 µM [rising, partial curve] |
| c1cn(-c2ncnc3sc4c(c23)CCCC4)cn1 | 5.1% | – | – |
| Cc1cc(C(=O)CSc2nnc(N)s2)c(C)n1C1CC1 | -16.5% | – | – |
| CCc1ccc(CNC(=O)c2nn(C)c3c2CS(=O)(=O)c2ccccc2-3)cc1 | 18.2% | – | – |
| COc1ccc(N2C(=O)c3ccccc3NC2c2ccccc2O)cc1 (stereo not given) | -17.7% | – | 0.58 µM [falling, single point] |
| COc1ccc(CCNC(=O)COC(=O)C2CCCCC2)cc1 | 19.3% | 4.11 µM [falling, single point] | – |
| CSCCC(=O)NC1CCCN(CCc2ccccc2)C1 (stereo not given) | 13% | – | 20.6 µM [rising, partial curve] |
| Cc1cccc(NC(=S)NCCO)c1C | – | – | 0.731 µM [falling, full curve] |
| C#CCCCc1nc2ccccc2c(=O)n1N | 21.5% | – | – |
| CCOC(=O)c1cc(CC)sc1NC(=O)c1ccc([N+](=O)[O-])c(N2CCOCC2)c1 | 12.8% | – | – |
| Cc1ccc(NC2CCCCC2NS(=O)(=O)c2ccccc2)c(C)c1 (stereo not given) | – | – | 29.1 µM [falling, single point] |

Copied from the list:
In AC50 [2], COc1ccc(N)cc1-n1cnnn1 reads 1.84 µM [falling, partial curve, poor fit]
In AC50 [2], CCCCn1c(SCC(=O)Nc2nnc(CC)s2)nc2c1c(=O)n(C)c(=O)n2C reads 4.61 µM [rising, full curve, poor fit]
In AC50 [1], COc1ccc(-c2cnc(N)nc2-c2ccc(OC)cc2O)cc1 reads 0.58 µM [rising, full curve]
In cell number change, O=C(O)c1cccc(NC(=O)c2cn(-c3ccccc3)nc2-c2cccc(Br)c2)c1 reads 21.8%
In AC50 [2], COc1ccc(NC(=O)c2cnc(SC)n2-c2ccc(F)cc2)c(OC)c1 reads 0.13 µM [rising, single point]

(next part)

| SMILES | cell number change | AC50 [1] | AC50 [2] |
| --- | --- | --- | --- |
| Cc1ccc(S(=O)(=O)NCC(=O)N(CC(=O)NCC2CCCO2)Cc2ccccc2)cc1 (stereo not given) | 15.5% | – | – |
| O=C(CCCn1c(=S)[nH]c2ccccc2c1=O)NC1CCCCC1 | -20.9% | – | 29.1 µM [rising, single point] |
| Cc1c(NC(=O)COc2cccc(Cl)c2Cl)c(=O)n(-c2ccccc2)n1C | 28.3% | – | – |
| COc1cccc(CC(=O)N2CCN(c3ccccc3[N+](=O)[O-])CC2)c1 | – | 0.164 µM [rising, full curve, poor fit] | 0.116 µM [rising, full curve, poor fit] |
| CCN(C(=O)c1cn(C)c(=O)c2cc(OC)c(OC)cc12)c1cc(OC)ccc1OC | -10.7% | – | 0.116 µM [falling, full curve, poor fit] |
| CC(C)NS(=O)(=O)c1ccc(CCC(=O)Nc2cc(Cl)ccc2Oc2ccccc2)cc1 | – | – | 6.51 µM [falling, single point] |
| Nc1nonc1C(=O)N/N=C/c1ccc(-c2ccc(Cl)c(C(=O)O)c2)o1 | -73.4% | 29.1 µM [falling, single point] | – |
| CC(=O)c1ccccc1NC(=O)COC(=O)/C=C/c1ccc(OC(F)F)cc1 | -8.01% | 4.11 µM [falling, single point] | – |
| CC(C)c1ccccc1OCCNC(=S)NC(=O)c1cccnc1 | -18% | – | 29.1 µM [falling, single point] |
| Cc1ccc(NC(=O)CN2C(=O)S/C(=C\C(=O)Nc3ccc(Cl)cc3)C2=O)cc1 | -52.9% | 29.1 µM [falling, single point] | – |
| CC(=O)Nc1cc2c(s1)c1cnn(Cc3ccccc3F)c(=O)c1n2C | 49.6% | 25.9 µM [rising, single point] | – |
| CC1CCCCC1NC(=O)CO/N=C/c1ccccc1OC(F)F (stereo not given) | – | – | 5.17 µM [falling, partial curve] |
| Cc1cccn2c(=O)nc(SCC(=O)N3CCC(Cc4ccccc4)CC3)nc12 | 37.7% | 2.06 µM [rising, full curve, poor fit] | 1.84 µM [rising, partial curve] |
| C=CCn1c(N)c(C(=O)Nc2cccc(C)c2)c2nc3ccccc3nc21 | -46.2% | 25.9 µM [falling, single point] | 20.6 µM [falling, single point] |
| O=C(/C=C\Nc1ccccn1)c1ccccc1 | 43.4% | 18.4 µM [rising, single point] | – |
| CCN(C(=O)Cc1ccc(Br)cc1)C1CCCCC1 | -60.8% | 32.6 µM [falling, single point] | 0.731 µM [falling, single point] |
| COc1ccc(NC(=O)COC(=O)c2cccc(S(=O)(=O)N(C)C)c2)cc1 | – | – | 0.58 µM [falling, single point] |
| COC(=O)c1cn(C(=O)c2ccc(C)cc2)c2ccccc12 | -1.5% | – | – |
| C=CCCC(=O)Nc1nc(C)c(-c2csc(Nc3cc(Cl)ccc3OC)n2)s1 | -0.176% | – | 5.17 µM [falling, partial curve] |
